Assay results from US20260062376A1, “SQUARAMIDE DERIVATIVES AS CB1 ALLOSTERIC MODULATORS” (RESEARCH TRIANGLE INSTITUTE, priority 2022, published 2026).
At least one structure is not confirmed: it was looked up by name or label, or the drawing left a doubt.

Test system: Sprague-Dawley rats
Test: Reinstatement of extinguished cocaine-seeking behavior
Format: in vivo, rat
Settings: 5.6 mg/kg i.p.

O=c1c(NCCc2cccc(Cl)c2)c(Nc2ccc(Cl)cc2)c1=O [Compound 7, 3-[(4-Chlorophenyl)amino]-4-{[2-(3-chlorophenyl)ethyl]amino}cyclobut-3-ene-1,2-dione]
Attenuation of cocaine reseeking behavior in rats: effective to attenuate cocaine-reseeking behavior
Attenuation of cocaine reseeking behavior in rats (listed as Compound 1): effective at attenuating cocaine reseeking behavior
Attenuation of cocaine reseeking behavior in rats (listed as Compound 6): effective to attenuate cocaine-reseeking behavior
